From the supplement of paper PMC6078165

What was measured:
Assay in all cases: relative JC-1 red fluorescence (viability) vs pre-drug, monoculture (fraction); higher = more viable cancer cells
Conditions in all cases: coculture fibroblast: none (monoculture)
MDAMB468 = tested on: MDAMB468
Method: (§1)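 JC-1 labelled TNBC cells grown in monoculture (density kept equal with unlabelled cancer cells) in 384-well plates in FluoroBrite medium, treated with one of 42 anticancer drugs at 0.1, 1, 10 or 100 uM. JC-1 red fluorescence (mitochondrial integrity, surrogate of apoptotic death) was read by plate reader every 8 h for 72 h. Values are normalised to each well's pre-drug value, with background from alamethicin. The stock of one drug was tenfold lower, so its dose labels may be too high. Monoculture values are repeated alongside each fibroblast plate and are averaged here.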

BT20 = tested on: BT20
Method: as §1

HCC1143 = tested on: HCC1143
Method: as §1

Hs578T = tested on: Hs578T
Method: as §1

CC(C)(C#N)c1cc(Cn2cncn2)cc(C(C)(C)C#N)c1 [Anastrozole]
relative JC-1 red fluorescence
Conditions | 8 h | 16 h | 24 h | 32 h | 40 h | 48 h | 56 h | 64 h | 72 h
BT20, 0.1 µM | 0.937 | 0.848 | 0.753 | 0.683 | 0.634 | 0.598 | 0.56 | 0.54 | 0.525
BT20, 1 µM | 0.9306 | 0.8702 | 0.8053 | 0.7575 | 0.7329 | 0.7267 | 0.7018 | 0.6999 | 0.7048
BT20, 10 µM | 0.93962 | 0.865 | 0.78 | 0.7048 | 0.662 | 0.639 | 0.612 | 0.594 | 0.581
BT20, 100 µM | 0.935 | 0.912 | 0.848 | 0.807 | 0.769 | 0.766 | 0.737 | 0.73 | 0.719
HCC1143, 0.1 µM | 0.8869 | 0.774 | 0.716 | 0.659 | 0.62 | 0.6 | 0.573 | 0.567 | 0.559
HCC1143, 1 µM | 0.8567 | 0.7703 | 0.7 | 0.661 | 0.622 | 0.6 | 0.567 | 0.54 | 0.512
HCC1143, 10 µM | 0.905 | 0.828 | 0.752 | 0.687 | 0.637 | 0.5964 | 0.5675 | 0.54622 | 0.5249
HCC1143, 100 µM | 0.9189 | 0.8633 | 0.8084 | 0.76 | 0.7165 | 0.678 | 0.652 | 0.633 | 0.619
Hs578T, 0.1 µM | 0.837 | 0.726 | 0.658 | 0.606 | 0.564 | 0.551 | 0.524 | 0.512 | 0.507
Hs578T, 1 µM | 0.8441 | 0.743 | 0.658 | 0.585 | 0.534 | 0.514 | 0.487 | 0.482 | 0.477
Hs578T, 10 µM | 0.842 | 0.743 | 0.656 | 0.586 | 0.52 | 0.475 | 0.441 | 0.42 | 0.4062
Hs578T, 100 µM | 0.881 | 0.8 | 0.784 | 0.734 | 0.714 | 0.711 | 0.687 | 0.706 | 0.697
MDAMB468, 0.1 µM | 0.9035 | 0.808 | 0.746 | 0.665 | 0.602 | 0.578 | 0.531 | 0.502 | 0.486
MDAMB468, 1 µM | 0.8904 | 0.805 | 0.76 | 0.706 | 0.682 | 0.67 | 0.639 | 0.616 | 0.608
MDAMB468, 10 µM | 0.897 | 0.8211 | 0.758 | 0.679 | 0.631 | 0.604 | 0.569 | 0.549 | 0.535
MDAMB468, 100 µM | 0.8872 | 0.835 | 0.788 | 0.725 | 0.72 | 0.695 | 0.682 | 0.651 | 0.636

CC(C)C[C@H](NC(=O)[C@@H](COC(C)(C)C)NC(=O)[C@H](Cc1ccc(O)cc1)NC(=O)[C@H](CO)NC(=O)[C@H](Cc1c[nH]c2ccccc12)NC(=O)[C@H](Cc1cnc[nH]1)NC(=O)[C@@H]1CCC(=O)N1)C(=O)N[C@@H](CCCNC(=N)N)C(=O)N1CCC[C@H]1C(=O)NNC(N)=O [Goserelin]
relative JC-1 red fluorescence
Conditions | 8 h | 16 h | 24 h | 32 h | 40 h | 48 h | 56 h | 64 h | 72 h
BT20, 0.1 µM | 0.9666 | 0.8447 | 0.7859 | 0.7125 | 0.666 | 0.634 | 0.592 | 0.573 | 0.549
BT20, 1 µM | 0.932 | 0.8582 | 0.785 | 0.707 | 0.66 | 0.644 | 0.616 | 0.596 | 0.579
BT20, 10 µM | 0.945 | 0.853 | 0.771 | 0.696 | 0.647 | 0.605 | 0.566 | 0.545 | 0.528
BT20, 100 µM | 0.852 | 0.903 | 0.862 | 0.793 | 0.744 | 0.711 | 0.673 | 0.654 | 0.63
HCC1143, 0.1 µM | 0.8861 | 0.773 | 0.72 | 0.678 | 0.638 | 0.6059 | 0.58189 | 0.5634 | 0.559
HCC1143, 1 µM | 0.883 | 0.819 | 0.759 | 0.702 | 0.653 | 0.613 | 0.589 | 0.5737 | 0.56
HCC1143, 10 µM | 0.8823 | 0.8 | 0.737 | 0.69 | 0.644 | 0.616 | 0.586 | 0.581 | 0.567
HCC1143, 100 µM | 0.945 | 0.902 | 0.885 | 0.864 | 0.844 | 0.821 | 0.799 | 0.787 | 0.773
Hs578T, 0.1 µM | 0.853 | 0.7115 | 0.697 | 0.634 | 0.592 | 0.5687 | 0.545 | 0.54 | 0.525
Hs578T, 1 µM | 0.845 | 0.735 | 0.705 | 0.642 | 0.609 | 0.601 | 0.586 | 0.587 | 0.59
Hs578T, 10 µM | 0.861 | 0.749 | 0.698 | 0.643 | 0.603 | 0.584 | 0.561 | 0.559 | 0.551
Hs578T, 100 µM | 0.901 | 0.794 | 0.809 | 0.726 | 0.697 | 0.689 | 0.674 | 0.68 | 0.664
MDAMB468, 0.1 µM | 0.8995 | 0.811 | 0.764 | 0.703 | 0.669 | 0.651 | 0.628 | 0.614 | 0.612
MDAMB468, 1 µM | 0.8822 | 0.806 | 0.743 | 0.6871 | 0.66341 | 0.6454 | 0.622 | 0.6055 | 0.6
MDAMB468, 10 µM | 0.9006 | 0.8373 | 0.783 | 0.719 | 0.665 | 0.649 | 0.614 | 0.59 | 0.577
MDAMB468, 100 µM | 0.897 | 0.831 | 0.795 | 0.733 | 0.697 | 0.675 | 0.648 | 0.624 | 0.621

The reference is the same well before dosing, and untreated signal decays as well.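 The cancer cells are triple-negative breast cancer lines of basal-like or mesenchymal-like type, grown without fibroblasts. A drop in red signal reflects loss of mitochondrial integrity, a stand-in for apoptotic death.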
